{"source": "PubChem BioAssay AID1159578 (Peter MacCallum Cancer Centre, 2015)", "assay": "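Knock-downs that alter how fast lymphatic endothelial cells migrate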 (primary screen)", "system": "human lymphatic endothelial cells", "knock-down reagent": "siRNA pool against human genes, 40 nM", "time to read-out": "48 h after transfection", "read-out": "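Cells stained with dye and imaged after a scratch; covered wound area and nuclei counted, duplicates averaged, migration set against mock wells and turned into a robust z-score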", "direction": "migration robust z-score: higher = faster migration into the scratch; nuclei per well: higher = more cells in the well", "call rule": "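Migration changed when robust z exceeds 2 or falls below -2 and mean nuclei number is at least 3300; otherwise not called changed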", "calls": "active = migration changed; inactive = no migration change, or too few cells", "note": "This is one part, drawn at random, of about 18,000 reagents tested. About 1,030 of all reagents (5.7%) count as active. 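Inactive calls also include pools with fewer than 3300 nuclei, whose migration was not assessed.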 Raw values are not corrected between plates. Further read-outs or replicates are left out here."}
{"gene":"SRGAP3 (SLIT-ROBO Rho GTPase activating protein 3)","migration robust z-score":0.48,"nuclei per well, duplicate mean":6172,"outcome":"inactive"}
{"gene":"RTCB (RNA 2',3'-cyclic phosphate and 5'-OH ligase)","migration robust z-score":0.48,"nuclei per well, duplicate mean":6568,"outcome":"inactive"}
{"gene":"LRIT2 (leucine rich repeat, Ig-like and transmembrane domains 2)","migration robust z-score":-1.03,"nuclei per well, duplicate mean":3659,"outcome":"inactive"}
{"gene":"PHACTR1 (phosphatase and actin regulator 1)","migration robust z-score":-3.21,"nuclei per well, duplicate mean":3880,"outcome":"active"}
{"gene":"KIF24 (kinesin family member 24)","migration robust z-score":0.38,"nuclei per well, duplicate mean":5984,"outcome":"inactive"}
{"gene":"OSM (oncostatin M)","migration robust z-score":0.42,"nuclei per well, duplicate mean":6008,"outcome":"inactive"}
{"gene":"DYNLL2 (dynein light chain LC8-type 2)","migration robust z-score":1.19,"nuclei per well, duplicate mean":5324,"outcome":"inactive"}
{"gene":"HECW1","migration robust z-score":1.61,"nuclei per well, duplicate mean":5896,"outcome":"inactive"}
{"gene":"MMP16 (matrix metallopeptidase 16)","migration robust z-score":0.55,"nuclei per well, duplicate mean":5651,"outcome":"inactive"}
{"gene":"CELF6 (CUGBP Elav-like family member 6)","migration robust z-score":-1.04,"nuclei per well, duplicate mean":5730,"outcome":"inactive"}
{"gene":"BTN2A2 (butyrophilin subfamily 2 member A2)","migration robust z-score":0.56,"nuclei per well, duplicate mean":5746,"outcome":"inactive"}
{"gene":"EXO1 (exonuclease 1)","migration robust z-score":0.76,"nuclei per well, duplicate mean":6153,"outcome":"inactive"}
{"gene":"ZNF765 (zinc finger protein 765)","migration robust z-score":-0.48,"nuclei per well, duplicate mean":6322,"outcome":"inactive"}
{"gene":"FHIT (fragile histidine triad diadenosine triphosphatase)","migration robust z-score":-0.36,"nuclei per well, duplicate mean":4751,"outcome":"inactive"}

In a second layout: entries from further up
PHACTR1 (phosphatase and actin regulator 1)
- migration robust z-score: -3.21
- nuclei per well, duplicate mean: 3880
- outcome: active

KIF24 (kinesin family member 24)
- migration robust z-score: 0.38
- nuclei per well, duplicate mean: 5984
- outcome: inactive
